From publication PMC3081335
No constants are given. Whether binding was seen depends on the method and setting. Binding seen in cells or lysates may run through a third protein. Some results given as binding are weak or reduced against the parent protein; the word gives no strength.

Target: rat GluN1a splice variant construct with a deletion from M848 to S938, GFP-tagged (wild type) (rat) (UniProt P35439)
Test: cross-linking; GluN1 subunit expressed alone in tsA201 cells; dodecylmaltoside whole-cell extract, non-reducing SDS-PAGE, Western blot with GFP antibody

binding: binds weakly
Substance: rat GluN1a splice variant construct with a deletion from M848 to S938, GFP-tagged (wild type) (from UniProt P35439-1 19-847) (receptor)
